From the supplement of paper PMC11732987, “Enantioselective OTUD7B fragment discovery through chemoproteomics screening and high-throughput optimisation” (Communications Chemistry, 2025)
Some of the results follow. The data scatter; read single values as rough.

The chains behind the UniProt entries cited, without tags or fusion partners. Where a name states a change or a piece, a line headed by the entry shows the natural chain unless it says otherwise. Residues count along the entry.
UniProt P50991, 97-122: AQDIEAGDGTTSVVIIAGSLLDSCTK
UniProt Q9BV73: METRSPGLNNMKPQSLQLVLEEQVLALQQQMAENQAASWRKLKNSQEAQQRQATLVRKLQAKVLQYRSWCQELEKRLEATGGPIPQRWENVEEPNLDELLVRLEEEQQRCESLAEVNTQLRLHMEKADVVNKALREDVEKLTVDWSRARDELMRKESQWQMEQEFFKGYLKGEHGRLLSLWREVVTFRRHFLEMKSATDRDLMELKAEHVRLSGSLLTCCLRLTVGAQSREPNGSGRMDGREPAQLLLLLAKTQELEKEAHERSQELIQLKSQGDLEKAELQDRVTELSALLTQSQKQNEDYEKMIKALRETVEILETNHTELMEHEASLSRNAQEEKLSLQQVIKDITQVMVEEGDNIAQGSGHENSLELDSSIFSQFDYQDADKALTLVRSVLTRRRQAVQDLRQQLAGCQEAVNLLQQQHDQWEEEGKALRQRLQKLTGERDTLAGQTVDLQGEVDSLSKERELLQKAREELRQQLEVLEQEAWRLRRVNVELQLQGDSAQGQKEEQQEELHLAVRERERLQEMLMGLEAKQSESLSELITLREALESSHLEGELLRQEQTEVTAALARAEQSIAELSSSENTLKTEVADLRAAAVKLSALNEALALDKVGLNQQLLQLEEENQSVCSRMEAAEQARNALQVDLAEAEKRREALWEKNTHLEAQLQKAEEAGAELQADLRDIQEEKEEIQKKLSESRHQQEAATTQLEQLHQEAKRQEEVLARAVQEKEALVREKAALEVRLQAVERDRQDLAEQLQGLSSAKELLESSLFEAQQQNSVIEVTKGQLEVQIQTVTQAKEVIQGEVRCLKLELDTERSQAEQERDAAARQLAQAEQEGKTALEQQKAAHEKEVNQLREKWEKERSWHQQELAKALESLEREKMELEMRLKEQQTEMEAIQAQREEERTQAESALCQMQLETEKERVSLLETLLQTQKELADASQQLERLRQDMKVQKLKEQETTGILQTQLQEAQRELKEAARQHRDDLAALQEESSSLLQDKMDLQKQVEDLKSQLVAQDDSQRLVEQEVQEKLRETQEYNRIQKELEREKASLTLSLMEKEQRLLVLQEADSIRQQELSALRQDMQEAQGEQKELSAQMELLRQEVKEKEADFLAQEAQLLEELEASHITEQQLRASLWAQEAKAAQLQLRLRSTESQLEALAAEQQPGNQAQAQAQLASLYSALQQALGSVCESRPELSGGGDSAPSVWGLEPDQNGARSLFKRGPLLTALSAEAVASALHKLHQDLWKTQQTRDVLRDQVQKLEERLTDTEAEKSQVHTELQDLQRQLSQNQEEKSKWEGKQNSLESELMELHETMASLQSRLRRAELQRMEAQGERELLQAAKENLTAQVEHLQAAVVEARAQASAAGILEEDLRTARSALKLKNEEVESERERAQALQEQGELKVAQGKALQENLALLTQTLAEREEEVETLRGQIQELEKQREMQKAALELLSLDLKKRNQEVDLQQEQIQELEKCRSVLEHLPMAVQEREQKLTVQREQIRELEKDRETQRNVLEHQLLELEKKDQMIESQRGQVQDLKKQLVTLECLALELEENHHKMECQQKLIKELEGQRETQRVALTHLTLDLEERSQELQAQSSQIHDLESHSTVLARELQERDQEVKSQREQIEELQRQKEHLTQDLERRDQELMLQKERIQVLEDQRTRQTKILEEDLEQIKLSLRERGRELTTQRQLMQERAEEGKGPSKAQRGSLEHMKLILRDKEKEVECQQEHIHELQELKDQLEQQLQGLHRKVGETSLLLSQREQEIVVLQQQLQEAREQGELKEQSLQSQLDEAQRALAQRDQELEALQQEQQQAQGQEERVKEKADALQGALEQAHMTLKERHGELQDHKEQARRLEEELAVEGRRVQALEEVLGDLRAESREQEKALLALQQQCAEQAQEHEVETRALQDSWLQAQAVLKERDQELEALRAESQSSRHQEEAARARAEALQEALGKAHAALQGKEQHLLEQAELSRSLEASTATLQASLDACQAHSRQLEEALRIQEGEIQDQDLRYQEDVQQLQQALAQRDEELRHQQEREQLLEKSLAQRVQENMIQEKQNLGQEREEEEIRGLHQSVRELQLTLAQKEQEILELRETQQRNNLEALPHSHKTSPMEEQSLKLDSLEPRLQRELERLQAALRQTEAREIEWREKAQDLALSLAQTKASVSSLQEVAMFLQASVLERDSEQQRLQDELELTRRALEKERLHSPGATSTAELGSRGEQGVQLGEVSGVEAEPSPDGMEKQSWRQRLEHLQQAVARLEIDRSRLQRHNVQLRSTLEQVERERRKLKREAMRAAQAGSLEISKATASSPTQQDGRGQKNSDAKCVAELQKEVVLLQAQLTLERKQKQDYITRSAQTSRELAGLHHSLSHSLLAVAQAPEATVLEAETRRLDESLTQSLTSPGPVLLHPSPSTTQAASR
UniProt Q96A19: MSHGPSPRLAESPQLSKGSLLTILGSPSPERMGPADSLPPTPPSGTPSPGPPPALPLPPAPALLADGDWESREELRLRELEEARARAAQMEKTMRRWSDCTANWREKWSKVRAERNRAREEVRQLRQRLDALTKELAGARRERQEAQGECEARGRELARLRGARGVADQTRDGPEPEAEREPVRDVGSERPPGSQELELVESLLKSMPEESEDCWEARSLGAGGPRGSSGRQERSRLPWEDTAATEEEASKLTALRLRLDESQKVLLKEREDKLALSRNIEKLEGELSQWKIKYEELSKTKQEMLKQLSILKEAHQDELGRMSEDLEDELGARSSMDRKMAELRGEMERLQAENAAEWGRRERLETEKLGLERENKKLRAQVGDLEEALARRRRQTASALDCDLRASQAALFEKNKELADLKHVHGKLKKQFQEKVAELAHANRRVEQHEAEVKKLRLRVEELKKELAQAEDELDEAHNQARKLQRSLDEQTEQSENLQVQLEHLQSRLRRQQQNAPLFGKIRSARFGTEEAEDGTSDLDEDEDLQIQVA
UniProt P49454: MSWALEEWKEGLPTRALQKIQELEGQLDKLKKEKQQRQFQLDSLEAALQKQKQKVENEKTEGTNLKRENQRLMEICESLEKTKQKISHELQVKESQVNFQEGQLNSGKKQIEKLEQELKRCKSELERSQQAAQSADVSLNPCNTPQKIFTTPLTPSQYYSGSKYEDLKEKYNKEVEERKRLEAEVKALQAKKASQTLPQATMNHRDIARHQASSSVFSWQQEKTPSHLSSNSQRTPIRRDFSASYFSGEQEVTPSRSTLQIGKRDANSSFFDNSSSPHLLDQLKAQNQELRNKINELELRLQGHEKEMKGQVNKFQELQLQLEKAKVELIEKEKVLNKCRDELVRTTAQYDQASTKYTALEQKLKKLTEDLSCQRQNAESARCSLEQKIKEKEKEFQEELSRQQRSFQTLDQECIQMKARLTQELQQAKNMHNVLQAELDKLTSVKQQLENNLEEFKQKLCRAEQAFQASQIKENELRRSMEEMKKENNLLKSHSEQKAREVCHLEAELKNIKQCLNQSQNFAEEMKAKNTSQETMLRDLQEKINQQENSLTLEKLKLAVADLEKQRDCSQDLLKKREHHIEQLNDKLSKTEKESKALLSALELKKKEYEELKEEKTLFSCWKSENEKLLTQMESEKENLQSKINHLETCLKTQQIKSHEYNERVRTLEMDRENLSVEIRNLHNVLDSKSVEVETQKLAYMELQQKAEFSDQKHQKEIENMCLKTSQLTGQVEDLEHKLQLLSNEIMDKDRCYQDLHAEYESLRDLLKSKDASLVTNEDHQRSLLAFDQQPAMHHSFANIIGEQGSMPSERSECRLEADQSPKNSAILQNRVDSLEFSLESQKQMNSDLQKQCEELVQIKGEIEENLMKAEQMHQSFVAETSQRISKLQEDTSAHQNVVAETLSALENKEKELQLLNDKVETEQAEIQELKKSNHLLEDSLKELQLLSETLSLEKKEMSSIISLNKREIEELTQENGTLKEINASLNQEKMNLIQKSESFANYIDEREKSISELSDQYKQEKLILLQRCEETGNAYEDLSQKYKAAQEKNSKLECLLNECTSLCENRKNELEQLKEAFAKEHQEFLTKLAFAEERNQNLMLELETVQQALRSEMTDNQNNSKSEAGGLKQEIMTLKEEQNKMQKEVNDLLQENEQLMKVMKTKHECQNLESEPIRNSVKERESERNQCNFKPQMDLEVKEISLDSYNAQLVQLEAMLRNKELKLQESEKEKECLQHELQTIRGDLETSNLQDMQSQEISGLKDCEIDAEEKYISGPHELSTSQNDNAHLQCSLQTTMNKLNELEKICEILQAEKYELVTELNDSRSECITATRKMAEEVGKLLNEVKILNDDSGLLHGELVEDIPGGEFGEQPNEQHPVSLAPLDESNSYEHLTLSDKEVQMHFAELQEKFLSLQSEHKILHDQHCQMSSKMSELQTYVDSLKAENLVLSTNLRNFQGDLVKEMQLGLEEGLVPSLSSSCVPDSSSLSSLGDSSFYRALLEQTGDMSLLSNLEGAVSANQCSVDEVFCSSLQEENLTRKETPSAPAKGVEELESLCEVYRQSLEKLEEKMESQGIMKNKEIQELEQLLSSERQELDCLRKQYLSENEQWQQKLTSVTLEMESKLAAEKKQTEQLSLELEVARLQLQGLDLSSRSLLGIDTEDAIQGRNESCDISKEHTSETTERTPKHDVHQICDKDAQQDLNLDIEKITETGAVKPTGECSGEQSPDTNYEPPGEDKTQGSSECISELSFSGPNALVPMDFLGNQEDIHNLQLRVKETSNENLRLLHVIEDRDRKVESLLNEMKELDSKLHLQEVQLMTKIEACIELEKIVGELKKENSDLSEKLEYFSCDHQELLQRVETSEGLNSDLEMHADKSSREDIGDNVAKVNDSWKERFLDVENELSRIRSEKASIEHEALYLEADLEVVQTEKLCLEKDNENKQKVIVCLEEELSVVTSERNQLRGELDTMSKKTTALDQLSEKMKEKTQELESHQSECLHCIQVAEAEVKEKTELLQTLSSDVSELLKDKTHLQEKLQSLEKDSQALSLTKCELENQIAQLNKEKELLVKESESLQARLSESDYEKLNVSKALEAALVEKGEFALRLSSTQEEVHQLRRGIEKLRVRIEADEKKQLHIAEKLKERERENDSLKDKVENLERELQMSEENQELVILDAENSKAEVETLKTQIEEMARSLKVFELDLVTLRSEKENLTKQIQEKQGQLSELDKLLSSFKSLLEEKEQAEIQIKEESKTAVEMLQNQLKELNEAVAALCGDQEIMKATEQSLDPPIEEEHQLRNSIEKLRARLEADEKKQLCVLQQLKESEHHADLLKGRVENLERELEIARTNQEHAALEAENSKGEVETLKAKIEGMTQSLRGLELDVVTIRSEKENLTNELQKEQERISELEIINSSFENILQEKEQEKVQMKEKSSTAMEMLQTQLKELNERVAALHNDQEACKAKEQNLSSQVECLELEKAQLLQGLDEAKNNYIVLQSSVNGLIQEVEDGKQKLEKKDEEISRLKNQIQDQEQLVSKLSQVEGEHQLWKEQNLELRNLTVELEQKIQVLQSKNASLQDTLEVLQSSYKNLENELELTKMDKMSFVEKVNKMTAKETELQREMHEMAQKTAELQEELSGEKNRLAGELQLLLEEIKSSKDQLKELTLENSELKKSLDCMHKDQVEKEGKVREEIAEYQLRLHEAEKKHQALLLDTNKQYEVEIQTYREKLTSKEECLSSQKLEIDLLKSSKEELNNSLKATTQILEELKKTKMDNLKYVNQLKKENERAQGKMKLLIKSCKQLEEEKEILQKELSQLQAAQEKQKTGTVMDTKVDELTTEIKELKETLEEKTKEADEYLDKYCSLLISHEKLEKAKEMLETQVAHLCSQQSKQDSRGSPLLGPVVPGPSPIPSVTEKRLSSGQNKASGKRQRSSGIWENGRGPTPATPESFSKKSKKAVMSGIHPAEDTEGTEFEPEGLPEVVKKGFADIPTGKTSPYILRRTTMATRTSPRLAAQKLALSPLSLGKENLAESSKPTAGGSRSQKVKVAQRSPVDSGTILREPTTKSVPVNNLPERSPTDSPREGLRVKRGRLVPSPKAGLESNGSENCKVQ

Compound: ClCC(=O)N[C@@H]1CCCc2ccccc12
Experiment: log2 mean competition ratio of IA-DTB cysteine labelling (DMSO/compound) (log2 ratio); higher = stronger cysteine engagement by compound
Conditions: 50 µM; treatment time: 4 h; cell line lysate: HEK293T
Experimental: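 IA-DTB competitive cysteine chemoproteomics in HEK293T RIPA lysate. Lysates were treated with compound 29 or 30 at 50 or 200 µM for 4 h, then IA-DTB (500 µM, 1 h), trypsin-digested, NeutrAvidin-enriched and analysed by diaPASEF. Competition ratio = intensity DMSO / intensity compound (n=4 treated, n=64 DMSO); binding: mean log2 CR ≥ 1 and p ≤ 0.05 plus QC filters. Target is the cysteine site.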

Target	log2 mean competition ratio
CDC16 C194 (UniProt Q13042)	0.00653
CDC42BPA C912 (UniProt Q5VT25)	-0.31
CEP350 C1432 (UniProt Q5VT06)	-0.317
CDCA2 C188 (UniProt Q69YH5)	0.14
CERT1 C185	0.00962
CEP192 C352 (UniProt Q8TEP8)	-0.0488
CCT4 C120 (UniProt P50991)	-0.286
CEBPZ C374 (UniProt Q03701)	-0.17
CEP250 C2348 (UniProt Q9BV73)	0.0593
CDC42BPB C1174 (UniProt Q9Y5S2)	-0.204
CCDC102A C150 (UniProt Q96A19)	-0.242
CENPE C1644 (UniProt Q02224)	-0.12
CFAP97 C27 (UniProt Q9P2B7)	-0.267
CDC37 C336	-0.11
CCAR1 C465 (UniProt Q8IX12)	-0.271
CECR2 C1084	-0.271
CCT3 C455	0.0354
CENPJ C294 (UniProt Q9HC77)	-0.206
CENPF C621 (UniProt P49454)	0.551
CCDC88A C1244 (UniProt Q3V6T2)	-0.0275

Same assay, conditions: 200 µM; treatment time: 4 h; cell line lysate: HEK293T

Target	log2 mean competition ratio
CDC16 C194 (UniProt Q13042)	0.0388
CDC42BPA C912 (UniProt Q5VT25)	-0.28
CEP350 C1432 (UniProt Q5VT06)	0.42
CDCA2 C188 (UniProt Q69YH5)	0.436
CERT1 C185	0.122
CEP192 C352 (UniProt Q8TEP8)	0.289
CCT4 C120 (UniProt P50991)	0.0694
CEBPZ C374 (UniProt Q03701)	0.2
CEP250 C2348 (UniProt Q9BV73)	-0.00918
CDC42BPB C1174 (UniProt Q9Y5S2)	-0.074
CCDC102A C150 (UniProt Q96A19)	0.322
CENPE C1644 (UniProt Q02224)	0.268
CFAP97 C27 (UniProt Q9P2B7)	0.322
CDC37 C336	0.122
CCAR1 C465 (UniProt Q8IX12)	-0.0124
CECR2 C1084	-0.108
CCT3 C455	-0.172
CENPJ C294 (UniProt Q9HC77)	0.156
CENPF C621 (UniProt P49454)	0.0892
CCDC88A C1244 (UniProt Q3V6T2)	-0.144
